Assay results from the supplement of paper PMC9744312.
Structures can show the parent of a compound that is named as a salt. The list shows a part of the results. This is a noisy data set.

tested on: Peyronie's disease tunica albuginea primary fibroblasts; test: cell viability (DRAQ5 nuclear stain) relative to TGF-beta1-only control; higher = more viable cells; conditions: 10 µM; TGF-beta1 10 ng/mL; 72 h

Row | Structure (SMILES) | cell viability
1 | Cc1cccc(Cc2c[nH]cn2)c1C [Detomidine HCl] | 91.1%
2 | CCCC[N+]1(C)[C@@H]2C[C@@H](OC(=O)[C@H](CO)c3ccccc3)C[C@H]1[C@@H]1O[C@@H]12 (stereo partly drawn) [Butylscopolamine Bromide] | 93.7%
3 | CC(C)C(Br)C(=O)NC(N)=O (stereo not drawn) [Bromisoval] | 94.2%
4 | CNC1CC(N)C(O)C(OC2OC(CO)C(O)C3OC4(OC(C(N)CO)C(O)C(O)C4O)OC23)C1O (stereo not drawn) [Hygromycin B] | 95%
5 | C=CCN1CC[C@]23c4c5ccc(O)c4O[C@H]2C(=O)CC[C@@]3(O)[C@H]1C5 [Naloxone HCl] | 96%
6 | Cn1cc(C2=C(c3cn(C4CCN(Cc5ccccn5)CC4)c4ccccc34)C(=O)NC2=O)c2ccccc21 | 101%
7 | NC(=O)c1cc(N2CC2)c([N+](=O)[O-])cc1[N+](=O)[O-] | 87.4%
8 | CC(C)OC(=O)[C@H](C)N[P@](=O)(CO[C@H](C)Cn1cnc2c(N)ncnc21)Oc1ccccc1 [Tenofovir Alafenamide (GS-7340)] | 73.8%
9 | CC(=O)O[C@H]1CC[C@@]2(C)C(=CC[C@@H]3[C@@H]2CC[C@]2(C)C(=O)CC[C@@H]32)C1 [Dehydroepiandrosterone acetate] | 79.2%
10 | CC(C)c1cccc(C(C)C)c1O [Propofol] | 94.5%
11 | COc1cc2c(c(OC)c1OC)-c1ccc(OC)c(=O)cc1[C@@H](NC(C)=O)CC2 [Colchicine] | 75.8%
12 | O=C(O)c1nn(Cc2ccc(Cl)cc2Cl)c2ccccc12 [Lonidamine] | 82%
13 | Cc1cc(C(C#N)c2ccc(Cl)cc2)c(Cl)cc1NC(=O)c1cc(I)cc(I)c1O (stereo not drawn) [Closantel Sodium] | 95.2%
14 | Cc1cc(C(C#N)c2ccc(Cl)cc2)c(Cl)cc1NC(=O)c1cc(I)cc(I)c1O (stereo not drawn) [Closantel] | 87%
15 | CCOC(=O)Nc1ccc(NCc2ccc(F)cc2)cc1N [Retigabine 2HCl] | 91.3%
16 | CCOC(=O)Nc1ccc(NCc2ccc(F)cc2)cc1N [Retigabine] | 88.4%
17 | CC(O)(CS(=O)(=O)c1ccc(F)cc1)C(=O)Nc1ccc(C#N)c(C(F)(F)F)c1 (stereo not drawn) [Bicalutamide] | 83.7%
18 | O=c1cccc2n1C[C@@H]1CNC[C@H]2C1 [Cytisine] | 103%
19 | NCC1(CC(=O)O)CCCCC1 [Gabapentin HCl] | 97.9%
20 | NCC1(CC(=O)O)CCCCC1 [Gabapentin] | 97.8%
21 | Cc1ccc2c(c1)[C@]13CCCC[C@@H]1[C@H](C2)N(C)CC3 [Dimemorfan phosphate] | 90.7%
22 | C=C1CC[C@@]2(O)[C@H]3Cc4ccc(O)c5c4[C@@]2(CCN3CC2CC2)[C@H]1O5 [Nalmefene HCl] | 80.7%
23 | O=[N+]([O-])O[C@H]1CO[C@H]2[C@@H]1OC[C@H]2O[N+](=O)[O-] [Isosorbide dinitrate] | 97.5%

Excerpt: entries 20 to 21
Row | Structure (SMILES) | cell viability
20 | NCC1(CC(=O)O)CCCCC1 [Gabapentin] | 97.8%
21 | Cc1ccc2c(c1)[C@]13CCCC[C@@H]1[C@H](C2)N(C)CC3 [Dimemorfan phosphate] | 90.7%
